Experimental data published in patent publication US20190083491.
Construct, isoform or probe ends are uncertain for at least one entry.

Protein sequences, listed by entry. Tags and fused reporters are not part of them. Residues count along the entry.
UniProt Q06609, 2-339: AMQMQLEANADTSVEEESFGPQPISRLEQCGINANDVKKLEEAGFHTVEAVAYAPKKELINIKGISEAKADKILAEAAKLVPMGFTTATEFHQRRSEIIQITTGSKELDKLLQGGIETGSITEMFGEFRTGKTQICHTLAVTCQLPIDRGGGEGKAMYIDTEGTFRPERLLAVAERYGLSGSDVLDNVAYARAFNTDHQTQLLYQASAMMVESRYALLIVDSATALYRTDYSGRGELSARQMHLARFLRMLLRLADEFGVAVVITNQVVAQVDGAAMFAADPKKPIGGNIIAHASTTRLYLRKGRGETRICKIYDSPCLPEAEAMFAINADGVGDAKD

Molecular target: RAD51 (Homo sapiens) (UniProt Q06609)
Test: activity assay
Details: gel-based D-loop assay with supercoiled pRS306; 0.5 uM RAD51, 20 nM ssDNA, 1 mM ATP, 1 mM MgCl2, pH 7.0, 37 C; purified recombinant protein; label: 5'-32P; single-stranded DNA

TACGAATGCACACGGTGTGGTGGGCCCAGGTATTGTTAGCGGTTTGAAGCAGGCGGCAGAAGAAGTAACAAAGGAACCTAGAGGCCTTTT [90-mer D-loop ssDNA]
activity on this sequence: active
